PubChem BioAssay AID1224826 | NIAID, 2016

- Assay: 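Genes that change LPS-induced Tnf promoter activity in mouse macrophages when knocked down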 (primary screen)
- System: RAW264.7 G9 macrophages from mouse bearing reporters for p65 (GFP) and the Tnf promoter (mCherry)
- Knock-down reagent: siRNA pool against mouse genes, 100 nM
- Duration: 16 h of LPS stimulation, after 2 days of siRNA transfection
- Conditions: bacterial lipopolysaccharide (Salmonella minnesota R595), 10 ng/ml
- Measurement: 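Imaged Tnf reporter mCherry in nuclei, minus background, normalised per plate to the median and expressed as robust z-scores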
- Reading the numbers: Tnf reporter robust z-score: higher = stronger Tnf promoter reporter signal after LPS; Tnf reporter intensity: higher = stronger Tnf promoter reporter signal
- Hit rule: 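a well counts as active at a score of -1.3 or below (Tlr4 knock-down control median) or above 3 (raised signal); controls and wells holding fewer than 50 cells are excluded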
- Calls: active = Tnf reporter clearly lowered or raised; inactive = no clear change in Tnf reporter
In all, the deposit lists about 17,000 reagents; below is a random part of them. About 1,110 of them (6.6%) count as active. 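Active means lowered or raised reporter signal; replicate intensities are raw and not normalised per plate.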 The numbers tell different reagents against one gene apart.

The first 6 records as a preview:
gene symbol	reagent	Tnf reporter robust z-score	fewer than 50 cells in well	Tnf reporter intensity, replicate 1	Tnf reporter intensity, replicate 2	outcome
Anxa10	1	0.95	enough cells in well	231	213	inactive
Fam76b	1	3.1	enough cells in well	347	135	active
Rpl13	1	-0.98	enough cells in well	90.9	93	inactive
Clptm1	1	1.93	enough cells in well	301	250	inactive
Plcb4	1	-0.14	enough cells in well	232	186	inactive
Or6z7	1	-0.25	enough cells in well	71.5	107	inactive

The listing, repeating the preview:
gene symbol	reagent	Tnf reporter robust z-score	fewer than 50 cells in well	Tnf reporter intensity, replicate 1	Tnf reporter intensity, replicate 2	outcome
Anxa10	1	0.95	enough cells in well	231	213	inactive
Fam76b	1	3.1	enough cells in well	347	135	active
Rpl13	1	-0.98	enough cells in well	90.9	93	inactive
Clptm1	1	1.93	enough cells in well	301	250	inactive
Plcb4	1	-0.14	enough cells in well	232	186	inactive
Or6z7	1	-0.25	enough cells in well	71.5	107	inactive
Ucp1	1	-0.6	enough cells in well	166	203	inactive
Cbx3	1	0.38	enough cells in well	276	236	inactive
Gsdmd	1	0.25	enough cells in well	167	69.8	inactive
Rtn4ip1	1	-1.32	enough cells in well	71.8	70.4	active
Tigd3	1	-1.01	enough cells in well	183	48.5	inactive
Ccna2	1	-0.49	enough cells in well	233	148	inactive
Faf1	1	1.16	enough cells in well	326	312	inactive
Slc17a1	1	2.84	enough cells in well	208	188	inactive
Rag2	1	0.3	enough cells in well	387	195	inactive
Odr4	1	-0.87	enough cells in well	152	140	inactive
Bckdhb	1	2.19	enough cells in well	213	334	inactive
Cuedc1	1	-0.28	enough cells in well	81.4	179	inactive
Kalrn	1	-1.1	enough cells in well	121	69.4	inactive
Hemk1	1		fewer than 50 cells per well; well left out of calls	117	67	inactive
Cacna1c	1	0.51	enough cells in well	169	191	inactive
Ccng1	1	0.07	enough cells in well	233	232	inactive
Washc3	1		fewer than 50 cells per well; well left out of calls	133	38.1	inactive
Fsip1	1	-0.08	enough cells in well	277	109	inactive
Proser3	1	0.08	enough cells in well	171	171	inactive
Lamtor2	1	0.79	enough cells in well	247	179	inactive
Atp6v0d1	1	0.62	enough cells in well	220	186	inactive
Mt4	1	-0.21	enough cells in well	184	114	inactive
Taf6	1	1.73	enough cells in well	336	234	inactive
Pde6d	1	-0.23	enough cells in well	211	177	inactive
Fam78b	1	0.65	enough cells in well	185	201	inactive
Fads3	1	-0.89	enough cells in well	182	89.8	inactive
Dnal4	1	-0.24	enough cells in well	164	111	inactive
Arid5b	1	-0.7	enough cells in well	149	119	inactive
Wbp11	1		fewer than 50 cells per well; well left out of calls	77.2	69.2	inactive
Banf2	1	-0.69	enough cells in well	161	49.8	inactive
Zbtb35	1		fewer than 50 cells per well; well left out of calls	74.8	79.7	inactive
Unc13b	1	0.2	enough cells in well	253	236	inactive
Acaa1a	1	-1.73	enough cells in well	56.8	75.5	active
Hkdc1	1	-0.63	enough cells in well	125	205	inactive
Psmc2	1		fewer than 50 cells per well; well left out of calls	383	17.3	inactive
Svs3a	1	2.43	enough cells in well	186	178	inactive
2300002M23Rik	1		fewer than 50 cells per well; well left out of calls	90.2	82.2	inactive
Slc25a28	1	-0.55	enough cells in well	109	54.1	inactive
Ca14	1	-0.72	enough cells in well	118	143	inactive
Gm5108	1	1.81	enough cells in well	280	257	inactive
Hdac9	1	-0.42	enough cells in well	185	190	inactive
Hdac9	2	-0.69	enough cells in well	198	119	inactive
Ncor2	1	-0.42	enough cells in well	260	148	inactive
Hemk2	1	0.75	enough cells in well	191	212	inactive
Gstt4	1		fewer than 50 cells per well; well left out of calls	162	37.5	inactive
Il23r	1	0.52	enough cells in well	265	188	inactive
Znrd2	1	-0.65	enough cells in well	200	184	inactive
Foxd3	1	-0.54	enough cells in well	210	192	inactive
Nop16	1	-0.3	enough cells in well	148	178	inactive
Vps26c	1	0.23	enough cells in well	224	109	inactive
Nr4a2	1	0.24	enough cells in well	310	158	inactive
Pbxip1	1	-0.58	enough cells in well	184	154	inactive
